# Assay results taken from patent US10487093B2, “Heterocyclic compounds, in particular 2-oxo-4,4,5,5,6,6,7,7-octahydrobenzoxazole derivatives, and their use as antibacterial compounds” (priority 2016, dated 2019).
# Some results were stated once for a whole list of compounds, not compound by compound.
# Tested on: Gram-negative and Gram-positive bacterial strains
# Assay type: cell-based
# Conditions: A. baumannii, E. coli, E. cloacae, P. aeruginosa and H. influenzae
row,SMILES,"activity against all strains of A. baumannii, E. coli, E. cloacae, P. aeruginosa and H. influenzae strains tested (in words)"
1,"N#Cc1ccc2ccc(=O)n(CCCN[C@@H]3CC[C@@H]4[C@@H](C3)OC(=O)N4c3ccc4c(n3)NC(=O)CO4)c2c1 [Compound 74, 1-(3-{[(3aR,6R,7aR)-2-oxo-3-{3-oxo-2H,3H,4H-pyrido[3,2-b][1,4]oxazin-6-yl}-octahydro-1,3-benzoxazol-6-yl]amino}propyl)-2-oxo-1,2-dihydroquinoline-7-carbonitrile]",excellent activity
2,"COc1cnc2ccc(=O)n(CCN[C@H]3CC[C@H]4[C@H](C3)OC(=O)N4c3ccc4c(n3)NC(=O)CO4)c2n1 [Compound 63, (3aS,6S,7aS)-6-[(2-{3-methoxy-6-oxo-5H,6H-pyrido[2,3-b]pyrazin-5-yl}ethyl)amino]-3-{3-oxo-2H,3H,4H-pyrido[3,2-b][1,4]oxazin-6-yl}-octahydro-1,3-benzoxazol-2-one]",excellent activity
3,"COc1ccc2ncc(=O)n(CCN[C@H]3CC[C@H]4[C@@H](C3)OC(=O)N4c3ccc4c(n3)NC(=O)CO4)c2n1 [Compound 35, (3aS,6S,7aR)-6-[(2-{6-methoxy-3-oxo-3H,4H-pyrido[2,3-b]pyrazin-4-yl}ethyl)amino]-3-{3-oxo-2H,3H,4H-pyrido[3,2-b][1,4]oxazin-6-yl}-octahydro-1,3-benzoxazol-2-one]",excellent activity

# Same assay, conditions: S. aureus and S. pneumoniae
row,SMILES,activity against the Gram-positive strains S. aureus and S. pneumoniae (in words)
1,"COc1cc2c(ccc(=O)n2CCN[C@H]2CC[C@H]3[C@H](C2)OC(=O)N3c2ccc3c(n2)NC(=O)CO3)cn1 [Compound 62, 1-(2-{[(3aS,6S,7aS)-2-oxo-3-{3-oxo-2H,3H,4H-pyrido[3,2-b][1,4]oxazin-6-yl}-octahydro-1,3-benzoxazol-6-yl]amino}ethyl)-7-methoxy-1,2-dihydro-1,6-naphthyridin-2-one]",excellent activity
2,"COc1ccc2ccc(=O)n(CCN[C@@H]3CC[C@@H]4[C@@H](C3)OC(=O)N4c3ncc4c(n3)NC(=O)CO4)c2n1 [Compound 44, 1-(2-{[(3aR,6R,7aR)-2-oxo-3-{7-oxo-6H,7H,8H-pyrimido[5,4-b][1,4]oxazin-2-yl}-octahydro-1,3-benzoxazol-6-yl]amino}ethyl)-7-methoxy-1,2-dihydro-1,8-naphthyridin-2-one]",excellent activity
3,"Cn1ccc(-c2ccc3ccc(=O)n(CCN[C@H]4CC[C@H]5[C@H](C4)OC(=O)N5c4ccc5c(n4)NC(=O)CO5)c3c2)n1 [Compound 104, 1-(2-{[(3aS,6S,7aS)-2-oxo-3-{3-oxo-2H,3H,4H-pyrido[3,2-b][1,4]oxazin-6-yl}-octahydro-1,3-benzoxazol-6-yl]amino}ethyl)-7-(1-methyl-1H-pyrazol-3-yl)-1,2-dihydroquinolin-2-one]",excellent activity
4,"N#Cc1ccc2ncc(=O)n(CCN[C@@H]3CC[C@@H]4[C@@H](C3)OC(=O)N4c3ccc4c(n3)NC(=O)CO4)c2c1 [Compound 68, 4-(2-{[(3aR,6R,7aR)-2-oxo-3-{3-oxo-2H,3H,4H-pyrido[3,2-b][1,4]oxazin-6-yl}-octahydro-1,3-benzoxazol-6-yl]amino}ethyl)-3-oxo-3,4-dihydroquinoxaline-6-carbonitrile]",excellent activity
5,"CN(CCn1c(=O)ccc2ccc(C#N)cc21)[C@H]1CC[C@H]2[C@@H](C1)OC(=O)N2c1ccc2c(n1)NC(=O)CO2 [Compound 47, 1-(2-{[(3aS,6S,7aR)-2-oxo-3-{3-oxo-2H,3H,4H-pyrido[3,2-b][1,4]oxazin-6-yl}-octahydro-1,3-benzoxazol-6-yl](methyl)amino}ethyl)-2-oxo-1,2-dihydroquinoline-7-carbonitrile]",excellent activity
6,"N#Cc1ccc2ccc(=O)n(CCCN[C@@H]3CC[C@@H]4[C@@H](C3)OC(=O)N4c3ccc4c(n3)NC(=O)CO4)c2c1 [Compound 74, 1-(3-{[(3aR,6R,7aR)-2-oxo-3-{3-oxo-2H,3H,4H-pyrido[3,2-b][1,4]oxazin-6-yl}-octahydro-1,3-benzoxazol-6-yl]amino}propyl)-2-oxo-1,2-dihydroquinoline-7-carbonitrile]",excellent activity
7,"COc1ccc2ncc(=O)n(CCN[C@H]3CCC4C(C3)OC(=O)N4c3ccc4c(n3)NC(=O)CO4)c2n1 (stereo in doubt) [Compound 45, (3aS,6S,7aS)-6-[(2-{6-methoxy-3-oxo-3H,4H-pyrido[2,3-b]pyrazin-4-yl}ethyl)amino]-3-{3-oxo-2H,3H,4H-pyrido[3,2-b][1,4]oxazin-6-yl}-octahydro-1,3-benzoxazol-2-one]",excellent activity
8,"O=C1COc2ccc(N3C(=O)O[C@@H]4C[C@@H](NCCn5c(=O)ccc6ncc(F)cc65)CC[C@@H]43)nc2N1 [Compound 28, 1-(2-{[(3aS,6S,7aR)-2-oxo-3-{3-oxo-2H,3H,4H-pyrido[3,2-b][1,4]oxazin-6-yl}-octahydro-1,3-benzoxazol-6-yl]amino}ethyl)-7-fluoro-1,2-dihydro-1,5-naphthyridin-2-one]",excellent activity
9,"COc1cnc2ccc(=O)n(CCN[C@H]3CC[C@H]4[C@H](C3)OC(=O)N4c3ccc4c(n3)NC(=O)CO4)c2n1 [Compound 63, (3aS,6S,7aS)-6-[(2-{3-methoxy-6-oxo-5H,6H-pyrido[2,3-b]pyrazin-5-yl}ethyl)amino]-3-{3-oxo-2H,3H,4H-pyrido[3,2-b][1,4]oxazin-6-yl}-octahydro-1,3-benzoxazol-2-one]",excellent activity
10,"COc1ccc2ccc(=O)n(CCCN[C@@H]3CC[C@@H]4[C@@H](C3)OC(=O)N4c3ncc4c(n3)NC(=O)CO4)c2n1 [Compound 79, 1-(3-{[(3aR,6R,7aR)-2-oxo-3-{7-oxo-6H,7H,8H-pyrimido[5,4-b][1,4]oxazin-2-yl}-octahydro-1,3-benzoxazol-6-yl]amino}propyl)-7-methoxy-1,2-dihydro-1,8-naphthyridin-2-one]",excellent activity
11,"COc1cnc2ccc(=O)n(CCCN[C@H]3CC[C@H]4[C@H](C3)OC(=O)N4c3ccc4c(n3)NC(=O)CO4)c2c1 [Compound 99, 1-(3-{[(3aS,6S,7aS)-2-oxo-3-{3-oxo-2H,3H,4H-pyrido[3,2-b][1,4]oxazin-6-yl}-octahydro-1,3-benzoxazol-6-yl]amino}propyl)-7-methoxy-1,2-dihydro-1,5-naphthyridin-2-one]",excellent activity
12,"COc1ccc2ncc(=O)n(CCN[C@H]3CC[C@H]4[C@@H](C3)OC(=O)N4c3ccc4c(n3)NC(=O)CO4)c2n1 [Compound 35, (3aS,6S,7aR)-6-[(2-{6-methoxy-3-oxo-3H,4H-pyrido[2,3-b]pyrazin-4-yl}ethyl)amino]-3-{3-oxo-2H,3H,4H-pyrido[3,2-b][1,4]oxazin-6-yl}-octahydro-1,3-benzoxazol-2-one]",excellent activity
13,"O=C1COc2ccc(N3C(=O)O[C@@H]4C[C@H](NCCCn5c(=O)cnc6cc(F)c(F)cc65)CC[C@H]43)nc2N1 [Compound 88, 1-(3-{[(3aR,6R,7aR)-2-oxo-3-{3-oxo-2H,3H,4H-pyrido[3,2-b][1,4]oxazin-6-yl}-octahydro-1,3-benzoxazol-6-yl]amino}propyl)-6,7-difluoro-1,2-dihydroquinoxalin-2-one]",excellent activity
14,"N#Cc1cnc2ccc(=O)n(CCCN[C@H]3CC[C@H]4[C@H](C3)OC(=O)N4c3ccc4c(n3)NC(=O)CO4)c2c1 [Compound 82, 5-(3-{[(3aS,6S,7aS)-2-oxo-3-{3-oxo-2H,3H,4H-pyrido[3,2-b][1,4]oxazin-6-yl}-octahydro-1,3-benzoxazol-6-yl]amino}propyl)-6-oxo-5,6-dihydro-1,5-naphthyridine-3-carbonitrile]",excellent activity
15,"COc1ccc2ccc(=O)n(CCN[C@@H]3CC[C@@H]4[C@H](C3)OC(=O)N4c3ccc4c(n3)NC(=O)CO4)c2n1 [Compound 25, 1-(2-{[(3aR,6R,7aS)-2-oxo-3-{3-oxo-2H,3H,4H-pyrido[3,2-b][1,4]oxazin-6-yl}-octahydro-1,3-benzoxazol-6-yl]amino}ethyl)-7-methoxy-1,2-dihydro-1,8-naphthyridin-2-one]",excellent activity
